The test has as its system HUVEC. Nature of the test: Selectivity ratio of IC50 for quesicent HUVECs to IC50 for activated HUVECs. It counts as functional, Homo sapiens.

For `COc1cc2c(c(OC)c1OC)-c1ccc(OC)c(=O)cc1[C@@H](NC(C)=O)CC2` [COLCHICINE], the “Ratio IC50” value is given as 0.85.

These data come from ChEMBL document CHEMBL2331442, “Synthesis and structure-activity relationships of N-methyl-5,6,7-trimethoxylindoles as novel antimitotic and vascular disrupting agents” (J Med Chem, 2013).
